Among the data in US20160355583A1 are binding values, retold here.

By UniProt entry, the sequences of proteins in these tests, tags left out. Where a name states a change or a piece, a line headed by the entry shows the natural chain unless it says otherwise.
UniProt Q9UK05: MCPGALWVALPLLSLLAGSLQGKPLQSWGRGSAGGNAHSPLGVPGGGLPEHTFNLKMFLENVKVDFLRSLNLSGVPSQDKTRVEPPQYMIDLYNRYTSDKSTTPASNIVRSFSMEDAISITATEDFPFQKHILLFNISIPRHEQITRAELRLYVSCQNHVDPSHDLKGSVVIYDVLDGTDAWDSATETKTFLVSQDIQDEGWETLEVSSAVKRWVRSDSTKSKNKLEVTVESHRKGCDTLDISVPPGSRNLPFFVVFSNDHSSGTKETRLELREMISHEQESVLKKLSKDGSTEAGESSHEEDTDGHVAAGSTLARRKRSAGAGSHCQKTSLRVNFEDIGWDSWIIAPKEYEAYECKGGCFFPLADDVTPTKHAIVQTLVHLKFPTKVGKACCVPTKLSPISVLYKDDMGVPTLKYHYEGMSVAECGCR

For test [1], the target named is human BMP9 (BMP9/Growth Differentiation Factor 2 [Homo sapiens], NP_057288) (human) (UniProt Q9UK05). The test is described as follows: ELISA binding assay. In general terms: An ELISA detects its analyte on a solid surface through an enzyme-linked reagent.
For test [2] the target is unchanged. The test is described as follows: summary of Example 11.
Test [3] has the same target. The test is described as follows: summary sentence of the description.

No constants are given. Whether binding was seen depends on the method and setting. Some entries that bind do so weakly or less than the wild type.

B1: Antibody BMP9-2: MOR022962 (antibody, human IgG1, kappa, V domains shown)
VH: QVQLLESGGGLVQPGGSLRLSCAASGFTFSSYAMSWVRQAPGKGLEWVSITLGTGHTHYADSVKGRFTISRDNSKNTLYLQMNSLRAEDTAVYYCARGSYIIWSALDYWGQGTLVTVSS
VL: DIQMTQSPSSLSASVGDRVTITCRASQDIRSYLNWYQQKPGKAPKLLIYDASNLQSGVPSRFSGSGSGTDFTLTISSLQPEDFATYYCQQSDTSPLTFGQGTKVEIKR
For the molecule B1, the binding result in test [1], in test [2] and in test [3] was “binds” throughout.

B2: Antibody BMP9-6: MOR022965 (antibody, human IgG1, kappa, V domains shown)
VH: QVQLVQSGAEVKKPGSSVKVSCKASGGTFSSYAISWVRQAPGQGLEWMGHIIPHWGHARYAQKFQGRVTITADESTSTAYMELSSLRSEDTAVYYCARSASSLPHFHWFDYWGQGTLVTVSS
VL: DIQMTQSPSSLSASVGDRVTITCRASQDINNYLNWYQQKPGKAPKLLIYAASRLQSGVPSRFSGSGSGTDFTLTISSLQPEDFATYYCQQRDTTPWTFGQGTKVEIKR
For the molecule B2, the binding result in test [2] and in test [3] was “binds” throughout.

B3: Antibody BMP9-3: MOR023795 (antibody, human IgG1, lambda, V domains shown)
VH: EVQLVQSGAEVKKPGESLKISCKGSGYSFTTYWIGWVRQMPGKGLEWMGIIYPEGSYTTYSPSFQGQVTISADKSISTAYLQWSSLKASDTAMYYCARGKRVDASSFDYWGQGTLVTVSS
VL: QSVLTQPPSVSGAPGQRVTISCSGSSSNIGDNYVSWYQQLPGTAPKLLIYRNNKRPSGVPDRFSGSKSGTSASLAITGLQAEDEADYYCSSTDKEHLVFGGGTKLTVLG
B3: the binding result in test [2] and in test [3] was “binds” in each case.

B4: Antibody BMP9-1: AM0100 (antibody, human IgG1, kappa, V domains shown)
VH: QVQLVQSGAEVKKPGASVKVSCKASGYTFTRYWMHWVRQAPGQGLEWMGEINPSQGGTNYNEKFKSRVTMTVDKSISTAYMELSRLRSDDTAVYYCAIGSNYGGLVYWGQGTLVTVSS
VL: EIVLTQSPATLSLSPGERATLSCRASESLDNYGISFMNWFQQKPGQAPRFLIYAASNQGSGIPARFSGSGSGTDFTLTISSLQPEDTAVYFCQQSKEVPRTFGGGTKVEIKR
For B4, the binding entry in test [2] and in test [3] was “binds” each time.

B5: Antibody BMP9-5: AM1900 (antibody, human IgG1, kappa, V domains shown)
VH: QVQLVQSGAEVKKPGASVKVSCKASGYTFTRYWMHWVRQAPGQGLEWMGEINPSQGGTNYNEKFKSRVTMTVDKSISTAYMELSRLRSDDTAVYYCAIGANYGGLVYWGQGTLVTVSS
VL: EIVLTQSPATLSLSPGERATLSCRASESLDNYGISFMNWFQQKPGQAPRFLIYAASNQGSGIPARFSGSGSGTDFTLTISSLQPEDTAVYFCQQSKEVPRTFGGGTKVEIKR
For the molecule B5, the binding entry in test [2] and in test [3] was “binds” each time.

B6: Antibody BMP9-4: AM4405 (antibody, human IgG1, kappa, V domains shown)
VH: QVQLVQSGAEVKKPGASVKVSCKASGYTFRSYNMHWVRQAPGQGLEWMGLIYPGNAVTSYSQKFKDRVTMTVDKSTSTAYMELSSLRSEDTAVYYCAKDDYFRGGSYAMDYWGQGTTVTVSS
VL: EIVLTQSPDFQSVTPKEKVTITCRASQSIRNNLHWYQQKPDQSPKLLIKYASQSIRGVPSRFSGSGSGTDFTLTINSLEAEDAATYYCQQSHSWPYTFGGGTKVEIKR
B6: the binding result in test [2] and in test [3] was “binds” in each case.

B7: Antibody BMP9-7: MOR023787 (antibody, human IgG1, lambda, V domains shown)
VH: QVQLVESGGGLVKPGGSLRLSCAASGFTFSSAWMSWVRQAPGKGLEWVGHIKSKTYGGTIDYAAPVKGRFTISRDDSKNTLYLQMNSLKTEDTAVYYCARVGGYYGYGYAFAYWGQGTLVTVSS
VL: SYELTQPLSVSVALGQTARITCSGDNIGDKYVSWYQQKPGQAPVLVIYDDNKRPSGIPERFSGSNSGNTATLTISRAQAGDEADYYCSSTASKSFNVFGGGTKLTVLG
As for B7, the binding result in test [2] and in test [3] was “binds” each time.

B8: Antibody BMP9-8: MOR023793 (antibody, human IgG1, kappa, V domains shown)
VH: QVQLVQSGAEVKKPGASVKVSCKASGYTFTSYYMNWVRQAPGQGLEWMGWINPVQGNTNYAQKFQGRVTMTRDTSISTAYMELSRLRSEDTAVYYCARNYFDVWGQGTLVTVSS
VL: DIQMTQSPSSLSASVGDRVTITCRASQTISNFLAWYQQKPGKAPKLLIYAASNLQSGVPSRFSGSGSGTDFTLTISSLQPEDFAVYYCQQLYAESITFGQGTKVEIKR
Take B8: the binding result in test [2] and in test [3] was “binds” throughout.

B9: Antibody BMP9-9: MOR023796 (antibody, human IgG1, lambda, V domains shown)
VH: QVQLVQSGAEVKKPGSSVKVSCKASGGTFSDYAIHWVRQAPGQGLEWMGGIIPFFGTAYYAQKFQGRVTITADESTSTAYMELSSLRSEDTAVYYCARRIVSDSVAVQYRHAFDPWGQGTLVTVSS
VL: QSVLTQPPSVSGAPGQRVTISCSGSSSNIGSNYVYWYQQLPGTAPKLLIYGNNNRPSGVPDRFSGSKSGTSASLAITGLQAEDEADYYCNAWDTKAYVWVFGGGTKLTVLG
For the molecule B9, the binding entry in test [2] and in test [3] was “binds” throughout.
